Data: patent publication US20230183592A1, “[…] ORGANO[…] AS NON-[…]-WEAR AGENTS” (priority 2020, published 2023)
In brackets after ≈: the same amount, converted by molar mass. The match of structure and compound is tentative.

Protein sequences, listed by entry. Tags and fused reporters are not part of them. Residues count along the entry.
UniProt P22303, 32-617 isoform 2 limits assumed: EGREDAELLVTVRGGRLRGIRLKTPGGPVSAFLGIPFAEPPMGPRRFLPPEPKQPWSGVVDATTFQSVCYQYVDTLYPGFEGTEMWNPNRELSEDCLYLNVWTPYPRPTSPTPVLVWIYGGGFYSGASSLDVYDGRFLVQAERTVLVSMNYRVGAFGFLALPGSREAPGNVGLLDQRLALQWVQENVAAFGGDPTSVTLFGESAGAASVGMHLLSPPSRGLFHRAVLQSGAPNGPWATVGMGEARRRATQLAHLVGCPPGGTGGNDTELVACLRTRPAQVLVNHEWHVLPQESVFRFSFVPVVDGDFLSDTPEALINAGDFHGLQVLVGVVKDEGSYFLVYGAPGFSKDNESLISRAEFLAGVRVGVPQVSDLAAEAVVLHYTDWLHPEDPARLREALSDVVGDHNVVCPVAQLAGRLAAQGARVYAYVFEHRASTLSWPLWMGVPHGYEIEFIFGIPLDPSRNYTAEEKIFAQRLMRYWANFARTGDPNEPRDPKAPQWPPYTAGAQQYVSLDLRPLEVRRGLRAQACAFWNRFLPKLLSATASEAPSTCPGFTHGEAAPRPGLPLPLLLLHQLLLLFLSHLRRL
UniProt P81908, whole entry: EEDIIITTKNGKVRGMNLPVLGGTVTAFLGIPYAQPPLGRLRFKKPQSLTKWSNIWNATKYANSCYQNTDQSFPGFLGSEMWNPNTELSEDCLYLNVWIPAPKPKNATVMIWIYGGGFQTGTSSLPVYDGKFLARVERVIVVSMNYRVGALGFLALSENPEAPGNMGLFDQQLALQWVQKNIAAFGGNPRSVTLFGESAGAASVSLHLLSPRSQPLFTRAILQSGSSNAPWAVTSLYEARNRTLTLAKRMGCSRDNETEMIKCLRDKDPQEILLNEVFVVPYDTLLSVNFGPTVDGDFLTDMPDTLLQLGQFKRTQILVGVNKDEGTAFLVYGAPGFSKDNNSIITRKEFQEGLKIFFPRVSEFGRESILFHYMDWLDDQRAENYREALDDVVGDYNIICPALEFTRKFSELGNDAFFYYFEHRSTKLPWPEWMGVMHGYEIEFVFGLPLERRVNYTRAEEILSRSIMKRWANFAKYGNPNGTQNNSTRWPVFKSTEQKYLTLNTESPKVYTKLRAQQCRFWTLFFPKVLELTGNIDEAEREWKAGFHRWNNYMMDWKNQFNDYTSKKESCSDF

What was measured:
[1] = target: human erythrocyte AChE (hAChE) (Homo sapiens, UniProt P22303); settings: Ellman method, 5 min pre-incubation at 25° C., n=3
[2] = target: BuChE from equine serum (eqBuChE) (Equus caballus, UniProt P81908); settings: Ellman method, 5 min pre-incubation at 25° C., n=3

In the case of CCCCCCCCCCCCCCCCC(CCCCCCCCCCCCCC)COP(=O)(Oc1ccccc1)Oc1ccccc1 (centres unmarked), the “IC50 hAChE” value [1] is reported as 23 µg/mL (≈ 32.9 µM) and the “IC50 eqBuChE” value [2] is reported as 127 µg/mL (≈ 182 µM).
